These results are taken from paper PMC4455059 (Nature Communications, 2015).

Some peptides are written in HELM: one residue between dots, names in brackets for other building blocks, links after the first $.

The series can be described thus: general procedure: Fmoc solid-phase peptide synthesis; 2-Chlorotrityl, H-Rink-Amide Chemmatrix or TentaGel S NH2. The conditions noted are these: conjugation step.

Substance “PEPTIDE1{A.N.G.R.A.[Trp2yl]}|PEPTIDE2{[Phe4yl].L.L.V.L}$PEPTIDE1,PEPTIDE1,1:R1-6:R2|PEPTIDE2,PEPTIDE2,1:R1-5:R2|PEPTIDE1,PEPTIDE2,6:R3-1:R3$$$V2.0” displayed a conjugation yield of 2%.
